Data taken from US6764829B2, “Nucleoside hydrolase and nucleoside phosphorylase detection kits, dipsticks and substrates” (Albert Einstein College of Medicine of Yeshiva University, priority 1996, dated 2004).
The name of at least one read-out is uncertain.

Test system: GI-nucleoside hydrolase
Test: Kinetic parameters with nitrophenylriboside and purine substrate (Table 1)
Assay type: biochemical, Crithidia fasciculata
Settings: nitrophenylriboside as substrate; pH 8.0 in 50 mM HEPES, 30° C.
Text: In this Example kinetic parameters for different enzymes were compared using nitrophenylriboside or a purine substrate. […] The E. coli and bovine spleen enzymes tested were ineffective in hydrolysing the substrate. The striking ability of one of the protozoan parasite enzymes to hydrolyse the substrate provides the basis for an assay for the protozoan parasites (see Example 22).

## O=[N+]([O-])c1ccc(O[C@@H]2O[C@H](CO)[C@@H](O)[C@H]2O)cc1 [Example 1, p-nitrophenyl β-D-ribofuranoside]
  kcat/Km: 140 M⁻¹ s⁻¹
